These are yes or no findings as the source states them, for the method shown. In cells and extracts the contact can be indirect. Some results given as binding are weak or reduced against the parent protein; the word gives no strength.
Target: V5–β-arrestin1 (UniProt P49407)
Test: co-IP; lysates of transiently transfected HEK293T cells co-expressing Flag-CCR5, V5–β-arrestin1 and HA-p85α/HA-p85β, in the presence of CCL5; lysis in 20 mM Tris-HCl, 150 mM NaCl, 1 mM EDTA, 1% NP-40; antibody or IgG 12 h at 4 °C, protein A/G magnetic beads; samples without β-arrestin1 also run

Chains of the proteins cited; added tags and fusions are not shown.
UniProt P49407: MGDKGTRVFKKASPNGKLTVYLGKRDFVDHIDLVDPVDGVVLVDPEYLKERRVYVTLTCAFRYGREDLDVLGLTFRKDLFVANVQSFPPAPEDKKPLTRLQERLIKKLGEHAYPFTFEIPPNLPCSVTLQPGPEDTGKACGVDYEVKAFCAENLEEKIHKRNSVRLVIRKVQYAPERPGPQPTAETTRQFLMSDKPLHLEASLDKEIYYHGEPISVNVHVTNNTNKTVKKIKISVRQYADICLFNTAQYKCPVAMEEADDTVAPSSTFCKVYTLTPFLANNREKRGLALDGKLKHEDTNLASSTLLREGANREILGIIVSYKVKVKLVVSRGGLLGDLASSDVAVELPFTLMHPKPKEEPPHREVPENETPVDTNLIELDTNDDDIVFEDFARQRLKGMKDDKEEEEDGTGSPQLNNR
UniProt O00459: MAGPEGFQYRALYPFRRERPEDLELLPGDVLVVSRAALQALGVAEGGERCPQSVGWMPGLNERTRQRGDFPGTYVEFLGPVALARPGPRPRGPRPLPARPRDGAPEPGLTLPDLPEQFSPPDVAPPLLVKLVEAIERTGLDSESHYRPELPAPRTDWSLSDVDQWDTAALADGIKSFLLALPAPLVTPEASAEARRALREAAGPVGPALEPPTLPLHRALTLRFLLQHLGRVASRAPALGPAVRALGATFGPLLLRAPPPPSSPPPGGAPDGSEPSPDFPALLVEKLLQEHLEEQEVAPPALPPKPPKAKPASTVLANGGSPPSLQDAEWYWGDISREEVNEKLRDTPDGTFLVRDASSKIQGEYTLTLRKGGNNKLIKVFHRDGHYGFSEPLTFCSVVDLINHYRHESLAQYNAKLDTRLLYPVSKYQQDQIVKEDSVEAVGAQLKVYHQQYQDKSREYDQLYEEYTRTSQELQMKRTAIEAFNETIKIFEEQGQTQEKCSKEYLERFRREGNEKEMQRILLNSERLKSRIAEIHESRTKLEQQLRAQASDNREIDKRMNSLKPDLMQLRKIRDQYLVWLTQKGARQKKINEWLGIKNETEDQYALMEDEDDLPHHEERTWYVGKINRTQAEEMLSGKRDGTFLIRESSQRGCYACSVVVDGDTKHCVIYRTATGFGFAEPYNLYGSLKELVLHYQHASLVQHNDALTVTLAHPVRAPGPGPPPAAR

For HA-p85β (from UniProt O00459 1-728), the binding was “binds”.
